# Experimental data as given in US20230121197A1, “ANTIBODIES SPECIFICALLY BINDING THE CARBOXYMETHYLATED CATALYTIC SUBUNIT OF PROTEIN PHOSPHATASE 2A” (Medizinische Universität Wien, priority 2020, published 2023).
# B1: 7C10-C5 monoclonal antibody (antibody, V domains shown)
# VH: DVQLQESGPGLVKPSQSLSLTCSVTGYSITSGYYWNWIRQFPGNKLEWMGYISYDGSNNYNPSLKNRISITRDTSKNQFFLKLNSVTTEDTATYYCAGRFAYWGQGTLVTVSA
# VL: DVLMTQTPLSLPVSLGDQASISCRSSQSIVHSNGNTYLEWYLQKPGQSPKLLIYKVSNRFSGVPDRFSGSGSGTDFTLKINRVEAEDLGVYYCFQGSHVPWTFGGGTKLEIK
# notes: Used as hybridoma culture supernatant (ELISA, Western blot, IHC) or at 50 µg/mL (SPR); also called 7C10 X63; clone 7C10-C5
# Molecular target: endogenous PPH21 (yeast (strain BY4741))
# Assay: Western blot of yeast lysate (30 µg per lane), hybridoma supernatant 1:50, ECL, 60 min exposure
binder,measurement,value
B1,binding,binds

# No constants are given. Whether binding was seen depends on the method and setting. A result given as binding can be weak or reduced; the word gives no strength.
